Source: the supplement of paper PMC6078165

System: MDAMB231
Assay: relative JC-1 red fluorescence (viability) vs pre-drug, coculture with fibroblast (fraction); higher = more viable cancer cells
Method: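 JC-1 labelled TNBC cells cocultured 1:1 (1,500 cells each) with CellTrace Violet stained primary or stromal fibroblasts in 384-well plates in FluoroBrite medium, treated with one of 42 anticancer drugs at 0.1, 1, 10 or 100 uM. JC-1 red fluorescence (mitochondrial integrity in cancer cells only) was read by plate reader every 8 h for 72 h. Values are normalised to each well's pre-drug value. The stock of one drug was tenfold lower, so its dose labels may be too high.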

CC(C)(C#N)c1cc(Cn2cncn2)cc(C(C)(C)C#N)c1 [Anastrozole]
relative JC-1 red fluorescence
Details	8 h	16 h	24 h	32 h	40 h	48 h	56 h	64 h	72 h
0.1 µM, coculture fibroblast: C12385	0.784	0.724	0.657	0.627	0.568	0.54	0.498	0.488	0.475
0.1 µM, coculture fibroblast: H6013	0.894	0.819	0.771	0.74	0.7	0.681	0.659	0.637	0.604
0.1 µM, coculture fibroblast: H6019	0.7201	0.643	0.5865	0.5451	0.483	0.4592	0.419	0.4	0.367
0.1 µM, coculture fibroblast: H6076	0.87293	0.774	0.7	0.662	0.616	0.574	0.541	0.522	0.506
0.1 µM, coculture fibroblast: H6231	0.899	0.77	0.704	0.649	0.593	0.56	0.523	0.5	0.477
0.1 µM, coculture fibroblast: HADF	0.88	0.828	0.784	0.735	0.692	0.642	0.629	0.604	0.557
0.1 µM, coculture fibroblast: HCFa	0.8809	0.804	0.7434	0.705	0.65	0.592	0.564	0.537	0.481
0.1 µM, coculture fibroblast: HCPF	0.882	0.742	0.662	0.613	0.553	0.509	0.468	0.436	0.408
0.1 µM, coculture fibroblast: HHSteC	0.899	0.882	0.845	0.811	0.79	0.763	0.734	0.73	0.692
0.1 µM, coculture fibroblast: HMF	0.879	0.782	0.702	0.664	0.6035	0.564	0.525	0.501	0.486
0.1 µM, coculture fibroblast: HPFa	0.9189	0.866	0.817	0.755	0.734	0.693	0.635	0.602	0.542
0.1 µM, coculture fibroblast: HUF	0.8536	0.702	0.75	0.63	0.575	0.563	0.513	0.519	0.498
0.1 µM, coculture fibroblast: Hs5	0.885	0.8011	0.7269	0.678	0.622	0.562	0.514	0.475	0.447
0.1 µM, coculture fibroblast: Hs27A	0.885	0.8092	0.771	0.753	0.69	0.628	0.627	0.601	0.551
0.1 µM, coculture fibroblast: Hs343T	0.8825	0.765	0.687	0.633	0.573	0.526	0.475	0.45	0.422
0.1 µM, coculture fibroblast: WS1	0.726	0.668	0.565	0.518	0.46	0.428	0.375	0.359	0.332
1 µM, coculture fibroblast: C12385	0.7446	0.696	0.6655	0.602	0.539	0.512	0.475	0.472	0.465
1 µM, coculture fibroblast: H6013	0.9016	0.827	0.758	0.734	0.682	0.659	0.633	0.611	0.577
1 µM, coculture fibroblast: H6019	0.7333	0.632	0.638	0.566	0.523	0.511	0.467	0.47	0.438
1 µM, coculture fibroblast: H6076	0.918	0.826	0.755	0.732	0.689	0.642	0.602	0.583	0.565
1 µM, coculture fibroblast: H6231	0.945	0.852	0.751	0.69	0.631	0.593	0.546	0.518	0.487
1 µM, coculture fibroblast: HADF	0.8761	0.8295	0.771	0.74	0.712	0.6961	0.65626	0.644	0.594
1 µM, coculture fibroblast: HCFa	0.8909	0.818	0.761	0.72	0.657	0.615	0.573	0.536	0.498
1 µM, coculture fibroblast: HCPF	0.8691	0.764	0.686	0.655	0.599	0.553	0.522	0.5	0.479
1 µM, coculture fibroblast: HHSteC	0.911	0.848	0.8262	0.79023	0.75	0.72	0.672	0.648	0.607
1 µM, coculture fibroblast: HMF	0.92	0.841	0.776	0.741	0.691	0.661	0.632	0.611	0.583
1 µM, coculture fibroblast: HPFa	0.96852	0.897	0.835	0.766	0.732	0.671	0.605	0.5729	0.503
1 µM, coculture fibroblast: HUF	0.847	0.76	0.808	0.676	0.611	0.604	0.544	0.544	0.526
1 µM, coculture fibroblast: Hs5	0.8987	0.819	0.786	0.763	0.729	0.686	0.672	0.649	0.63
1 µM, coculture fibroblast: Hs27A	0.825	0.771	0.738	0.727	0.685	0.654	0.628	0.616	0.541
1 µM, coculture fibroblast: Hs343T	0.888	0.779	0.687	0.649	0.576	0.526	0.465	0.438	0.397
1 µM, coculture fibroblast: WS1	0.7393	0.638	0.643	0.538	0.496	0.481	0.433	0.437	0.419

The reference is the same well before dosing, and untreated signal decays as well.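 Labels refer to human fibroblasts, largely primary: uterine (C12385, HUF), lung (H6013), bone (Hs27A), adrenal (HADF), skin (WS1), plus mammary HMF and breast cancer-associated Hs343T. Cancer lines are basal-like or mesenchymal-like triple-negative breast cancer. The paper counts as hits responses shifting over 3x the replicate standard deviation. The tissue of the other fibroblasts is not given here.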
